# From patent US12275958B2, “Gut organoid and method for producing the same” (DAI NIPPON PRINTING CO., LTD., priority 2017, dated 2025)
# Protein sequences, listed by entry. Tags and fused reporters are not part of them.
# UniProt P13569, whole entry: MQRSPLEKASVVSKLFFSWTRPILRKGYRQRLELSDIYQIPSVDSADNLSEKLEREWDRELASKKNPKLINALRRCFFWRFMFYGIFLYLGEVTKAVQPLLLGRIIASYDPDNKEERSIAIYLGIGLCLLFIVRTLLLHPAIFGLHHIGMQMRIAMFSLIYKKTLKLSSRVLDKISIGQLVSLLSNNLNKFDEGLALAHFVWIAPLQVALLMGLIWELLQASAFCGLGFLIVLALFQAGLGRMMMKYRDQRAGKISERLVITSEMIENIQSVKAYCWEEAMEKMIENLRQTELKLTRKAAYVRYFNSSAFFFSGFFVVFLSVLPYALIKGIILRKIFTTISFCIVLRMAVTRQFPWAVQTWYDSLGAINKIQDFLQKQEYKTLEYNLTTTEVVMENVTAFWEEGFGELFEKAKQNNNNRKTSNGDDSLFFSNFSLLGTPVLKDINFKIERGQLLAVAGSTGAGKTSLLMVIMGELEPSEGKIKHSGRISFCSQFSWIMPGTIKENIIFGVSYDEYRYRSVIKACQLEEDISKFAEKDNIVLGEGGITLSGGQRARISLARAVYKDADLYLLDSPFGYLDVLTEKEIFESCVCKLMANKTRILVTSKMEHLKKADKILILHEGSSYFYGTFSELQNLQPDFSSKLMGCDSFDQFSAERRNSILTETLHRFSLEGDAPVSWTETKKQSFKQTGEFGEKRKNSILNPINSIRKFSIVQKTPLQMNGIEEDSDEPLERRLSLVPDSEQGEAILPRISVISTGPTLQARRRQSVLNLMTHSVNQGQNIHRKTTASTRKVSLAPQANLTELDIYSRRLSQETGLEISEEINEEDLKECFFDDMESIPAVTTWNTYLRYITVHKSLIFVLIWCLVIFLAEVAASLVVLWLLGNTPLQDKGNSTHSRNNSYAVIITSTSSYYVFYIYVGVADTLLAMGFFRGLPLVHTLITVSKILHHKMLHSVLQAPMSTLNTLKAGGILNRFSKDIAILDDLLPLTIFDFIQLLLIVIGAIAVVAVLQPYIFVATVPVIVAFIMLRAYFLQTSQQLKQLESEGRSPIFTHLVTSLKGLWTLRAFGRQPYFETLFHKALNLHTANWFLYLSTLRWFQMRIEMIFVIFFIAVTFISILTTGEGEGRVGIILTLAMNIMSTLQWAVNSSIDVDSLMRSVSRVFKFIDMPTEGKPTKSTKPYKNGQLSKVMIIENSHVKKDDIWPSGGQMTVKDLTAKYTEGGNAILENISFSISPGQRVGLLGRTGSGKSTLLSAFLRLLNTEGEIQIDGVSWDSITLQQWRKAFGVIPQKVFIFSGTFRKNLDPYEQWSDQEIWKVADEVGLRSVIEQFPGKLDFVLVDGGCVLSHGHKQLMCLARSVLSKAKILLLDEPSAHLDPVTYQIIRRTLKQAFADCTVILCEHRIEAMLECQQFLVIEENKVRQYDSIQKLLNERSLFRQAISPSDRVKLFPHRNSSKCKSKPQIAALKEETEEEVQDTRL
# Entries after “also recorded” stand apart in the source; their conditions may differ. At least one compound was matched to its structure with a doubt left.
# Biological target: T1, CFTR (Homo sapiens, UniProt P13569)
# T1 construct: confirmed the presence of CFTR in epithelial layers of the gut organoids; endogenous in cells; host or cells: Gut organoids differentiated from EGFP-expressing human embryonic stem cells (hESCs)
# Test: CFTR transport activity of gut organoids, forskolin-induced swelling (FIS) assay
# Format: cell-based
# Details: 5 μM forskolin, time-lapse over 20 minutes, EGFP-hESC-derived organoids
smiles,measurement,value
C=C[C@@]1(C)CC(=O)[C@]2(O)[C@@]3(C)[C@@H](O)CCC(C)(C)[C@@H]3[C@H](O)[C@H](OC(C)=O)[C@@]2(C)O1 [forskolin],gut organoid swelling (organoid surface area),swollen; also recorded: induces gut organoid swelling
